For the assay, the target named is 3XHA TOBF1 (mouse) (UniProt A2AG58). In words: co-IP.

Chains of the proteins cited; added tags and fusions are not shown.
UniProt A2AG58, whole entry: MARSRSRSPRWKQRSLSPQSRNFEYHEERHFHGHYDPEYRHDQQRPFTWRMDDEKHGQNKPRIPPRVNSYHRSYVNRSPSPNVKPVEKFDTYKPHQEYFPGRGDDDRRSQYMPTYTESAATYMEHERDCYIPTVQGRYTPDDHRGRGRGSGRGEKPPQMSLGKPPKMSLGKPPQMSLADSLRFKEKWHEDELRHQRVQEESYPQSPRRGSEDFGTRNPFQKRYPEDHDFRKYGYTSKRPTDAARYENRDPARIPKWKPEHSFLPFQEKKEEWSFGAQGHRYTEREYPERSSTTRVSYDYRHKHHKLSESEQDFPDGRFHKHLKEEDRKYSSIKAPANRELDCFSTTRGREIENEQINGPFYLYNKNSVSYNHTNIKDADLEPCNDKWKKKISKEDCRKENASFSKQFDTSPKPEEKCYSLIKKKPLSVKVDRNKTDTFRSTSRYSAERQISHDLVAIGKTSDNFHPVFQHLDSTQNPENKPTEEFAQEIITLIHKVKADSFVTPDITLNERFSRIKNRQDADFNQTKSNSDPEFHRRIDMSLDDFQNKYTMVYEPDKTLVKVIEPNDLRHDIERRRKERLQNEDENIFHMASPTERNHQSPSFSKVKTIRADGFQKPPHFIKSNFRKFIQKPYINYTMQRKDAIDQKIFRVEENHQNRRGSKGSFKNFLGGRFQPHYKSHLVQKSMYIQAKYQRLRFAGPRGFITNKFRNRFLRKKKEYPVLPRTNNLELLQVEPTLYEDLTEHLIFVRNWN
UniProt Q9QX47, whole entry: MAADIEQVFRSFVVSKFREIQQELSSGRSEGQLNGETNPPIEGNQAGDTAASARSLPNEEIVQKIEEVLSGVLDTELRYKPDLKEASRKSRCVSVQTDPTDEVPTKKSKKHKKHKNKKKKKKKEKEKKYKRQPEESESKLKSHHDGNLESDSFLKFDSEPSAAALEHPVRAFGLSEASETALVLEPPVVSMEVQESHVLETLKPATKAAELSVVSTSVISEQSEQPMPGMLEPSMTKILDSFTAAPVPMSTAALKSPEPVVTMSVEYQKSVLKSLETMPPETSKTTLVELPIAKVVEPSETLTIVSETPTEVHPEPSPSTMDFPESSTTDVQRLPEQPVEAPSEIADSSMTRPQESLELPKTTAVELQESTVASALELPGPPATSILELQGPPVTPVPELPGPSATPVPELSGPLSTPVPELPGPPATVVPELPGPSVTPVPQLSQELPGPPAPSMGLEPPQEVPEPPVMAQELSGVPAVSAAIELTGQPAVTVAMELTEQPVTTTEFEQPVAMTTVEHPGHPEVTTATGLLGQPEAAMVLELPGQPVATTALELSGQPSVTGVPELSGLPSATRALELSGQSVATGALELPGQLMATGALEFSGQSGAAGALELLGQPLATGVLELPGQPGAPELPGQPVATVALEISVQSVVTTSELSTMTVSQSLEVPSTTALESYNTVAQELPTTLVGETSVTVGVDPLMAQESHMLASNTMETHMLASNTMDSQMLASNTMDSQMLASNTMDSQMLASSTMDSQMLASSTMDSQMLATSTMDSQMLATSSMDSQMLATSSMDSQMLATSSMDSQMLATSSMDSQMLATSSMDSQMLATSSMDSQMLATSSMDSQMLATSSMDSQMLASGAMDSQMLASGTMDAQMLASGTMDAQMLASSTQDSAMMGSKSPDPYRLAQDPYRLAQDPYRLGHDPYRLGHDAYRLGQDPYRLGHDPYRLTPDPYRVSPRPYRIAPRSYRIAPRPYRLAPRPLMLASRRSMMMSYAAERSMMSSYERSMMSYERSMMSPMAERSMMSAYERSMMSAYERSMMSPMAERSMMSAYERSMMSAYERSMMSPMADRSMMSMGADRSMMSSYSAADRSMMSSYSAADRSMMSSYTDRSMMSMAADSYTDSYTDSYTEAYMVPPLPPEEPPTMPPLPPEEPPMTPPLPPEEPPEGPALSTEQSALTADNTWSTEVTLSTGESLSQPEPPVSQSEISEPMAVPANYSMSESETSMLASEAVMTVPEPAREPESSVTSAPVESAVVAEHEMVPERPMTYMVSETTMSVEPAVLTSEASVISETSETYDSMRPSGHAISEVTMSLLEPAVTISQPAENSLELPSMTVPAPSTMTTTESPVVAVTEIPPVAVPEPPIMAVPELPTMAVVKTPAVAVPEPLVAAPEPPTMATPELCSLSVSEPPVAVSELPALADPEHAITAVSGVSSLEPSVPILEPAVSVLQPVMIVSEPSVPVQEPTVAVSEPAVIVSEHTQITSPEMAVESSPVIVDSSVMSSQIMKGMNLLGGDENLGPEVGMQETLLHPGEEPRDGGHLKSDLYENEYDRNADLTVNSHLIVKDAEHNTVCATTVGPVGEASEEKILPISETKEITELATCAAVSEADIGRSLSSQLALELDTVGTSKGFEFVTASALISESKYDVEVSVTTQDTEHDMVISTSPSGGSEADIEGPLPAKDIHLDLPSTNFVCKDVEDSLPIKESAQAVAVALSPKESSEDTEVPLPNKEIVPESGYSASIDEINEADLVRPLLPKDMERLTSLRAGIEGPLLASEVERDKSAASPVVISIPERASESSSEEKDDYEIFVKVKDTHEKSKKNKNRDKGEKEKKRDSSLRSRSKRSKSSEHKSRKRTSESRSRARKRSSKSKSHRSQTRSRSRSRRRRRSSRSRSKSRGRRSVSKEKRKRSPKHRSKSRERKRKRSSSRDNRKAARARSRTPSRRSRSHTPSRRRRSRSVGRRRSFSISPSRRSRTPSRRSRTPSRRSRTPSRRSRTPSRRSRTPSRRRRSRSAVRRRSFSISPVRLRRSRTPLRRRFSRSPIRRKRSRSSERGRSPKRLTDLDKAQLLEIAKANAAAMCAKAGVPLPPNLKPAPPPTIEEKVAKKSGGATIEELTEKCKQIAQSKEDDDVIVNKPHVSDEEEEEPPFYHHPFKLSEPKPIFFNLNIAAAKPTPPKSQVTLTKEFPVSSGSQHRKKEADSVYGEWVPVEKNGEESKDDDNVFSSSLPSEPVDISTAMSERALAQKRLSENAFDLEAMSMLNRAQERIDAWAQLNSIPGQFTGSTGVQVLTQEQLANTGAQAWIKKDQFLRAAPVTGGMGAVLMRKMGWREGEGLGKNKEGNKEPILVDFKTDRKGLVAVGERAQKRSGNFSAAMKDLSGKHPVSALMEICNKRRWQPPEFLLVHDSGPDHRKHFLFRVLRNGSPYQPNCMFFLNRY

Results are given in words; binding and its absence hold for the method and conditions named. Binding seen in cells or lysates may run through a third protein. Some entries that bind do so weakly or less than the wild type.

Consider SON (from UniProt Q9QX47 1-2444), for which the binding entry was “binds”.

For the origin of these results see article doi:10.1101/2023.01.03.522557.
